# According to patent US20210309652A1, “ISOXAZOLINE COMPOUNDS FOR CONTROLLING INVERTEBRATE PESTS” (priority 2018, published 2021):
# Some of these results come from one statement about several compounds together. At least one compound was matched to its structure with a doubt left.
# Tests used:
# Type in all cases: in vivo
# Settings in all cases: 6 days
# [1] = system: Western Flower Thrips (Frankliniella occidentalis (Pergande)); experiment: Test G: control of Western Flower Thrips on Soleil bean plant, contact and/or systemic
# Method: (§1) Test Compounds were formulated using a solution containing 10% acetone, 90% water and 300 ppm Activator 90® non-ionic surfactant (Loveland Products, Loveland, Colo., USA). The formulated Compounds were applied in 1 mL of liquid through an atomizer nozzle positioned 1.27 cm (0.5 inches) above the top of each test unit. Test Compounds were sprayed at the rates indicated, and each test was replicated three times.
# For evaluating control of the Western Flower Thrips (Frankliniella occidentalis (Pergande)) through contact and/or systemic means, the test unit consisted of a small open container with a 5-7-day-old Soleil bean plant inside.
# Test Compounds were formulated and sprayed at 250, 50, 10 and 2 ppm. After spraying, the test units were allowed to dry for 1 hour, and then ˜60 thrips (adults and nymphs) were added to each unit. A black, screened cap was placed on top, and the test units were held for 6 days at 25° C. and 45-55% relative humidity. Each test unit was then visually assessed for plant damage and insect mortality.
# [2] = system: fall armyworm (Spodoptera frugiperda (J. E. Smith)); experiment: Test B: control of fall armyworm on corn (maize) plant, foliar spray
# [3] = system: potato leafhopper (Empoasca fabae (Harris)); experiment: Test C: control of potato leafhopper on Soleil bean plant, contact and/or systemic
# Method: as §1
# For evaluating control of potato leafhopper (Empoasca fabae (Harris)) through contact and/or systemic means, the test unit consisted of a small open container with a 5-6-day-old Soleil bean plant (primary leaves emerged) inside. White sand was added to the top of the soil, and one of the primary leaves was excised prior to application of the test Compound.
# Test Compounds were formulated and sprayed at 250, 50 and 10 ppm. After spraying of the formulated test Compound, the test units were allowed to dry for 1 hour before they were post-infested with 5 potato leafhoppers (18-to-21-day-old adults). A black, screened cap was placed on the top of the test unit, and the test units were held for 6 days in a growth chamber at 20° C. and 70% relative humidity. Each test unit was then visually assessed for insect mortality.
# [4] = system: diamondback moth (Plutella xylostella (L.)); experiment: Test A: control of diamondback moth on mustard plant, foliar spray
Compound,control efficacy: plant damage (30% or less plant damage and/or 100% mortality) ([1]; sprayed at 10 ppm) [%],control efficacy: feeding damage (40% or less feeding damage and/or 100% mortality) ([2]; sprayed at 2 ppm) [%],control efficacy: feeding damage (40% or less feeding damage and/or 100% mortality) ([2]; sprayed at 10 ppm) [%],mortality ([3]; sprayed at 10 ppm),mortality ([3]; sprayed at 50 ppm),control efficacy: feeding damage (40% or less feeding damage and/or 100% mortality) ([4]; sprayed at 2 ppm) [%],control efficacy: feeding damage (40% or less feeding damage and/or 100% mortality) ([4]; sprayed at 10 ppm) [%],control efficacy: plant damage (30% or less plant damage and/or 100% mortality) ([1]; sprayed at 2 ppm) [%]
COC(=O)C(C)NC(=O)c1ccc(C2=NOC(c3cc(Cl)c(F)c(Cl)c3)(C(F)(F)F)C2)c2ccoc12 (mixture of isomers) [Compound 2],≤ 30,≤ 40,≤ 40,at least 80%,at least 80%,≤ 40,≤ 40,
CNC(=O)C(C)NC(=O)c1ccc(C2=NOC(c3cc(Cl)c(F)c(Cl)c3)(C(F)(F)F)C2)c2ccoc12 (mixture of isomers) [Compound 5],≤ 30,≤ 40,≤ 40,at least 80%,at least 80%,≤ 40,≤ 40,
CCNC(=O)C(C)NC(=O)c1ccc(C2=NOC(c3cc(Cl)c(F)c(Cl)c3)(C(F)(F)F)C2)c2ccoc12 (mixture of isomers) [Compound 6],≤ 30,≤ 40,≤ 40,at least 80%,at least 80%,≤ 40,≤ 40,
CC(NC(=O)c1ccc(C2=NOC(c3cc(Cl)c(F)c(Cl)c3)(C(F)(F)F)C2)c2ccoc12)C(N)=O (mixture of isomers) [Compound 7],≤ 30,≤ 40,≤ 40,at least 80%,at least 80%,≤ 40,≤ 40,
COC(=O)C(C)NC(=O)c1ccc(C2=NOC(c3cc(Cl)c(F)c(Cl)c3)(C(F)(F)F)C2)c2ccsc12 (mixture of isomers) [Compound 21],≤ 30,≤ 40,≤ 40,at least 80%,at least 80%,≤ 40,≤ 40,≤ 30
CSCC(C)NC(=O)c1ccc(C2=NOC(c3cc(Cl)c(F)c(Cl)c3)(C(F)(F)F)C2)c2ccoc12 (mixture of isomers) [Compound 39],≤ 30,≤ 40,≤ 40,at least 80%,,≤ 40,≤ 40,
CC(C[S+](C)[O-])NC(=O)c1ccc(C2=NOC(c3cc(Cl)c(F)c(Cl)c3)(C(F)(F)F)C2)c2ccoc12 (mixture of isomers) [Compound 40],≤ 30,≤ 40,≤ 40,at least 80%,,≤ 40,≤ 40,
CO/N=C/NC(=O)c1ccc(C2=NOC(c3cc(Cl)c(F)c(Cl)c3)(C(F)(F)F)C2)c2ccoc12 (racemic) [Compound 35],≤ 30,≤ 40,≤ 40,at least 80%,,≤ 40,≤ 40,
"O=C(NC1C[S+]([O-])C1)c1ccc(C2=NOC(c3cc(Cl)c(F)c(Cl)c3)(C(F)(F)F)C2)c2ccoc12 (single isomer, unassigned) [Compound 58]",,≤ 40,,at least 80%,,≤ 40,,≤ 30
O=C(NCc1ncccn1)c1ccc(C2=NOC(c3cc(Cl)c(F)c(Cl)c3)(C(F)(F)F)C2)c2ccoc12 (stereo not drawn) [Compound 8],≤ 30,≤ 40,≤ 40,at least 80%,at least 80%,≤ 40,≤ 40,
CC(CS(C)(=O)=O)NC(=O)c1ccc(C2=NOC(c3cc(Cl)c(F)c(Cl)c3)(C(F)(F)F)C2)c2ccoc12 (stereo not drawn) [Compound 10],≤ 30,≤ 40,≤ 40,at least 80%,at least 80%,≤ 40,≤ 40,
O=C(NCc1ncccn1)c1ccc(C2=NOC(c3cc(Cl)cc(Cl)c3)(C(F)(F)F)C2)c2ccoc12 (stereo not drawn) [Compound 12],≤ 30,≤ 40,≤ 40,,at least 80%,≤ 40,≤ 40,
O=C(NC1CC1)c1ccc(C2=NOC(c3cccc(C(F)(F)F)c3)(C(F)(F)F)C2)c2ccoc12 (stereo not drawn) [Compound 65],,≤ 40,,at least 80%,,≤ 40,,
NC(=O)c1ccc(C2=NOC(c3ccc(F)c(C(F)(F)F)c3)(C(F)(F)F)C2)c2ccoc12 (stereo not drawn) [Compound 66],,≤ 40,,at least 80%,,≤ 40,,
CC(C#N)NC(=O)c1ccc(C2=NOC(c3ccc(F)c(C(F)(F)F)c3)(C(F)(F)F)C2)c2ccoc12 (stereo not drawn) [Compound 68],,≤ 40,,at least 80%,,≤ 40,,
O=C(NC1CSC1)c1ccc(C2=NOC(c3ccc(F)c(C(F)(F)F)c3)(C(F)(F)F)C2)c2ccoc12 (stereo not drawn) [Compound 69],,≤ 40,,at least 80%,,≤ 40,,
O=CNCc1ccc(C2=NOC(c3cc(Cl)c(F)c(Cl)c3)(C(F)(F)F)C2)c2ccoc12 (stereo not drawn) [Compound 82],,≤ 40,,at least 80%,,≤ 40,,
CC(NC(=O)c1ccc(C2=NOC(c3cc(Cl)c(F)c(Cl)c3)(C(F)(F)F)C2)c2sccc12)C(=O)N(C)C (stereo not drawn) [Compound 116],,≤ 40,,at least 80%,,≤ 40,,
CC(NC(=O)c1ccc(C2=NOC(c3cc(Cl)cc(Cl)c3)(C(F)(F)F)C2)c2sccc12)c1cnccn1 (stereo not drawn) [Compound 121],,,,at least 80%,,≤ 40,,≤ 30
O=C(NC1CSC1)c1ccc(C2=NOC(c3cc(Cl)cc(Cl)c3)(C(F)(F)F)C2)c2sccc12 (stereo not drawn) [Compound 123],,≤ 40,,at least 80%,,≤ 40,,
CC(NC(=O)c1ccc(C2=NOC(c3cccc(C(F)(F)F)c3)(C(F)(F)F)C2)c2sccc12)c1cnccn1 (stereo not drawn) [Compound 127],,,,at least 80%,,≤ 40,,≤ 30
